These are yes or no findings as the source states them, for the method shown. In cells and extracts the contact can be indirect. Some entries that bind do so weakly or less than the wild type.
Target: BRG1 (SMARCA4) (human (endogenous in HeLa)) (UniProt P51532)
Experiment: co-IP

The chains behind the UniProt entries cited, without tags or fusion partners.
UniProt P51532: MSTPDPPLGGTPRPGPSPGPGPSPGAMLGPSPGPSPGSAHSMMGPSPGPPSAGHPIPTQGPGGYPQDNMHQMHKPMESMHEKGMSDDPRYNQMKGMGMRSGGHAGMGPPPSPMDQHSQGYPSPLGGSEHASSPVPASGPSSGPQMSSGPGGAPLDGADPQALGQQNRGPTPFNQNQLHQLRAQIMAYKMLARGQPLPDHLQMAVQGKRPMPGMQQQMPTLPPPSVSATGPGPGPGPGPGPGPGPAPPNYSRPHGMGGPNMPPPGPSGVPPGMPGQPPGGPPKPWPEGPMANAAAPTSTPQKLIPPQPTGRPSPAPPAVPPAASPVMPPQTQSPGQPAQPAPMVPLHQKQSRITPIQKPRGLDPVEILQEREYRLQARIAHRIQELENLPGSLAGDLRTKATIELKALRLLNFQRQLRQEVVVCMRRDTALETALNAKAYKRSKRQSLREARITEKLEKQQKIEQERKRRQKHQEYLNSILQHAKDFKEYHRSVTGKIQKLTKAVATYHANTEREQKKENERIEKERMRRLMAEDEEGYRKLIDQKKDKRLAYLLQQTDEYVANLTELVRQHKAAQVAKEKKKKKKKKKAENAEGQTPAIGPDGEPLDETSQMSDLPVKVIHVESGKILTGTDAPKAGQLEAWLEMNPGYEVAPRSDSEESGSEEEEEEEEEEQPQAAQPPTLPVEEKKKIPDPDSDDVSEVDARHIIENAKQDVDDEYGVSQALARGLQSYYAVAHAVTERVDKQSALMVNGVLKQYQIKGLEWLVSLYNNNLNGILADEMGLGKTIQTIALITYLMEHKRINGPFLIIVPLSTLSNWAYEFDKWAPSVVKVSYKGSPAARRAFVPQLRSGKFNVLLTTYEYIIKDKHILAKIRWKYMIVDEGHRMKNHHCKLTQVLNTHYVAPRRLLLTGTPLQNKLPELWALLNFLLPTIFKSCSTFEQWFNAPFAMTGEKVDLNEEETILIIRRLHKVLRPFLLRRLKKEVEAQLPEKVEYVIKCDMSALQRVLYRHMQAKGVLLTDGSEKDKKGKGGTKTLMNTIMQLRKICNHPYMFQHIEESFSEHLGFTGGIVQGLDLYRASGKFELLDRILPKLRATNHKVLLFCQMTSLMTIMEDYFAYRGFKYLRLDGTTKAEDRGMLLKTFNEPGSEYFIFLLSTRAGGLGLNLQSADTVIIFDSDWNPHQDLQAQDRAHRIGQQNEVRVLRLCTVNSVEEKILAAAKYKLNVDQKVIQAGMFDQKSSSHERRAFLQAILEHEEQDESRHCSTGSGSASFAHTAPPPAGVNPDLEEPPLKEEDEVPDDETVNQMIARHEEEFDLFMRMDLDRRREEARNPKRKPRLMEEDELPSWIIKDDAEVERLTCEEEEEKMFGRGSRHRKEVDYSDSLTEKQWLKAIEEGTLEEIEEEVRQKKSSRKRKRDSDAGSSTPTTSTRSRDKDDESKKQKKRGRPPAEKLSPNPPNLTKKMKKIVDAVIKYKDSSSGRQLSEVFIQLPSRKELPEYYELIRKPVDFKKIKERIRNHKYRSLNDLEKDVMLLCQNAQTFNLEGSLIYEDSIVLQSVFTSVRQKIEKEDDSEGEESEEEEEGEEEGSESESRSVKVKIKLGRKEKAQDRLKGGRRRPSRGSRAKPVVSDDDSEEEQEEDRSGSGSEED
UniProt P53350: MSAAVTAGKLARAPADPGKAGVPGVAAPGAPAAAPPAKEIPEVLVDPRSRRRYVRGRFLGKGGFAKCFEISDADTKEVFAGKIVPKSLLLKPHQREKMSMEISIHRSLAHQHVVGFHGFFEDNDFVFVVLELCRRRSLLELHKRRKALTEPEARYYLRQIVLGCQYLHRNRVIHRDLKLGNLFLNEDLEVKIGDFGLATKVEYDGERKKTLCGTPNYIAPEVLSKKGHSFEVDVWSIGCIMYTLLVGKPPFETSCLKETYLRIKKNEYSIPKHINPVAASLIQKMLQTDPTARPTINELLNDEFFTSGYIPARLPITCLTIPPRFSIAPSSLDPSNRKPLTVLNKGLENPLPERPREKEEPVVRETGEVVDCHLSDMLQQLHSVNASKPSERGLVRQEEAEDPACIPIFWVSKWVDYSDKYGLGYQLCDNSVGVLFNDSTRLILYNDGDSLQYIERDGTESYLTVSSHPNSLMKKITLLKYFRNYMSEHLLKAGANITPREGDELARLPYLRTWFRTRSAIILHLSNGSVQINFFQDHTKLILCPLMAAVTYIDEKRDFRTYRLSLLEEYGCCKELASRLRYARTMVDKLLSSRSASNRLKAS

**Q.** For PLK1 (from UniProt P53350 1-603), which binding is on record?
**A.** The binding was “binds”.

Source: paper doi:10.1101/2025.09.27.678965
